Results are given in words; binding and its absence hold for the method and conditions named. Binding seen in cells or lysates may run through a third protein. Here binding means that the protein was enriched with, or labelled near, the bait; the list need not be complete.
Target: GST-E2 300–432 (Epstein-Barr virus) (UniProt P12978)
Assay: affinity purification with mass spectrometry; only the target purified

Sequences of proteins named here, by UniProt entry; tags and fusion partners are left off. Residues count along the entry.
UniProt P12978, residues 300-432: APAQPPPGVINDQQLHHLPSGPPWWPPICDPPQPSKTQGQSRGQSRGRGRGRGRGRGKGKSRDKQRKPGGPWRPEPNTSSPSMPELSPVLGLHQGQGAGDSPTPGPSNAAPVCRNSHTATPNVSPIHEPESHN
UniProt P06748: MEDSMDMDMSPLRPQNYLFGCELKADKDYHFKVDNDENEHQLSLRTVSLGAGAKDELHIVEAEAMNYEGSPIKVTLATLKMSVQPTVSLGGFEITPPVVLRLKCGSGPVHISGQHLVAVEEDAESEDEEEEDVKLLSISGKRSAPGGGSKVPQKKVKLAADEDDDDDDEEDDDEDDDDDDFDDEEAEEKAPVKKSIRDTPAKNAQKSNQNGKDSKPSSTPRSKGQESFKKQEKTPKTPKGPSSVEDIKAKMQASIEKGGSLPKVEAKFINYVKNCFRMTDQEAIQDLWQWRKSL

Substance: nucleophosmin (NPM1), endogenous (from UniProt P06748 1-294)
- binding: binds
